From US20240108662A1, “ENGINEERED CELLS FUNCTIONALIZED WITH IMMUNE CHECKPOINT MOLECULES AND USES THEREOF” (The University of North Carolina at Chapel Hill, priority 2020, published 2024)

Experiment: Proteomic analysis of native murine pancreata and decelled pancreatic ECM (Table 1)
Parameters: species or system mouse
Details: for Pancreatic ECM: Mean of log2(intensities): abundance of the listed protein in decelled pancreatic ECM; for Native pancreas tissue: Mean of log2(intensities): abundance of the listed protein in native murine pancreas tissue

B1: Q8K224 (protein, UniProt Q8K224 1-1024, looked up)
chain: MNRKKVDNRIRILIENGVAERQRSLFVVVGDRGKDQVVILHHMLSKATVKARPSVLWCYKKELGFSSHRKKRMRQLQKKIKSGTLNLKQDDPFELFVAATNIRYCYYNETHKILGNTFGMCVLQDFEALTPNLLARTVETVEGGGLVVILLRTMNSLKQLYTMTMDVHSRYRTEAHQDVVGRFNERFILSLASCKKCLVIDDQLDILPISSHVASIEALPPQAPDENLSPAALELLELKESLQDTQPVGVLVDCCKTLDQAKAVLKFIEGISEKTLRSTVALTAARGRGKSAALGLAIAGAVAFGYSNIFVTSPSPDNLHTLFEFVFKGFDALQYQEHLDYEIVQSLNPEFNKAVIRVNVFREHRQTIQYIHPADAVKLGQAELVVIDEAAAIPLPLVKSLLGPYLVFMASTINGYEGTGRSLSLKLIQQLRQQSAQSQVSTTAENKTTTTARLASARTLHEVSLQESIRYAPGDAVEKWLNDLLCLDCLNITRIVSGCPLPEACELYYVNRDTLFCYHKASEVFLQRLMALYVASHYKNSPNDLQMLSDAPAHHLFCLLPPVPPTQNALPEVLAVVQVCLEGEISRQSILNSLSRGKKASGDLIPWTVSEQFQDPDFGGLSGGRVVRIAVHPDYQGMGYGSRALQLLQMYYEGKFPCLEEKVLETPQEIRTVSSEAVSLLEEVITPRKDLPPLLLKLNERPAERLDYLGVSYGLTPRLLKFWKRAGFVPVYLRQTPNDLTGEHSCIMLKTLADEDEAEQGAWLAAFWKDFRRRFLALLSYQFSTFSPALSLNIIQNRNVAKSALPALGREHLEALFLPYDLKRLEMYSRNMVDYHLIMDLIPAISRLYFLNQLGDLSLSAAQSALLLGIGLQHKSVDQLEKEIELPSGQLMGLFNRIIRKVVKLFNDVQEKAIEEQMVAVKDVVMEPTMKTLSDDLDEAAKEFQEKHKKEVGKLKDMDLSQYVIRGDDEEWNEVLSKAGQNASIVSLKSDKKRKLETKQEPKQSKKLKKRDNNRKDMKLKRKK
modifications: full-length
Pancreatic ECM: Mean of log2(intensities): 25.63 a.u. | Native pancreas tissue: Mean of log2(intensities): 21.07 a.u.

B2: Q6P5B0 (protein, UniProt Q6P5B0 1-1295, looked up)
chain: MGRSGKLPSGVSAKLKRWKKGHSSDSNPATCRHRQAARSRFFSRPSGKSDLTVDAVKLHNELQSGTLSLGKSQAPETTMDQDPEVAFTEKSSGTFLSGLSDCTNVTFSKVQRFWESNSAAHKEICAVLAAVTEVIRSQGGKETETEYFAALMTTMEAVESPESLAAVAYLLNLVLKRVPSPVLMKKFSDTSKAFMDIMSAQASSGSTSALRWVLSCLAILLRKQDLEAWGYPITLQVYHGLLSFTVHAKPKIRKAAQHGVCSVLKGSDFMFGEKAPAHHPAAVSTAKFCIQEIEKSGGSKEATTTLHMLTLLKDMLPCFPEGLVKSCSETLLRVMTLNHVLVTACAMQAFHNLFHAKPSPSTLSAELNAQIVTALYDYVPSENDLQPLLAWLKVMEKAHINLVRLQRDLGLGHLARFFGTAVTCLLSPHSQVAAAATQTLKEILKECVAPHIADIGSVTSSASGPPQYITKMFRAVEEGLTYKFHAAWSSVLQLLGVFFEACGKQAHPVMKKCLQSLCDLRLSPHFPHTAALDQAVGAAVTSMGPEVVLQAVPLEIDGSEETLDFPRSWLLPVIRDHVRETRLGFFTTYFLPLATTLKRKAMDLAQAGSTVESKIYDTLQWQIWTLLPGFCTRPTDVAASFKGLARTLGTAINERPDLRVTVCQALRTLITKGCEAEADRAEVSRFAKNFLPILFNLYGQPVAAGEAAAPRRAVLETIKTYLTITEAQLVNSFLEKATEKVLDPASSDFTRLSVLDLVVALAPYSDEAAISKLYSTIRPYLESKVHGVQKKAYRVLEEVCASSQGPAARFVQSHLDDLKKTLLDSLRTTSSPAKRPRLKCLIHIVKTLSAEHEEFIAALIPEVILCTKEVSVGARKSAFTLLVEMGHAFLRFGSNQEDALQRYLVLIYPGLLGAVTTVSCSILALTHLLFEFKGLMGTSTVEQLLENVCLLLASRTRDVVKSALGFIKVAVVVMDVVHLAKHVQLVMEAIGKLSDDMRRHFRMKLRNLFIKFTRKFGFELVKGLLPAEYHKVLINIRKAETRAKKHRALSQAAVEEEEEEEEEEEPVQSKGDSIEEILADSEDEDEEEERGRGKEQRKLARQRSRAWLKEGGGDEPLNFLDPKVAHRVLATQPGPGRGKKRDHGFKLSADGRLIIREEEDGNKVEEEDGTKGEDEDMTDAMEDASVRSKKKLKRQREDEEDELEIPPRYQAGGSGIHRPVAKKAAPGAEYKAKKAKGDVKKKGRLDPYAYVPLNRSKLNRRKKVKLQGQFKGLVKATQRGSQAGHKLRRKDRRRP
modifications: full-length
Pancreatic ECM: Mean of log2(intensities): 26.17 a.u. | Native pancreas tissue: Mean of log2(intensities): 21.32 a.u.

B3: Q9JJ80 (protein, UniProt Q9JJ80 1-306, looked up)
chain: MDALDKVLKPKTKRAKRFLEKREPKLTENIKNAMLIKGGNANATVTQVLRDMYALKKPYGVLYKKKNITRPFEDQTSLEFFSKKSDCSLFMFGSHNKKRPNNLVIGRMYDYHVLDMIELGIEKFVSLKDIKTSKCPEGTKPMLIFAGDDFDVTEDFRRLKNLLIDFFRGPTVSNVRLAGLEYVLHFTALNGKVYFRSYKLLLKKSGCRTPRIELEEMGPSLDLVMRRTHLASDDLYKLSMKVPKALKPKKRKNISQDTFGTTFGRIHMQKQDLSKLQTRKMKGLKKRPAENGVDDQGKKSKRIKKN
modifications: full-length
Pancreatic ECM: Mean of log2(intensities): 26.78 a.u. | Native pancreas tissue: Mean of log2(intensities): 22.28 a.u.

B4: Q9WVC3 (protein, UniProt Q9WVC3 1-162, looked up)
chain: MGLETEKADVQLFMADDAYSHHSGVDYADPEKYVDSSHDRDPHQLNSHLKLGFEDLIAEPETTHSFDKVWICSHALFEISKYVMYKFLTVFLAIPLAFIAGILFATLSCLHIWILMPFVKTCLMVLPSVQTIWKSVTDVVIGPLCTSVGRSFSSVSMQLSHD
modifications: full-length
Pancreatic ECM: Mean of log2(intensities): 25.62 a.u. | Native pancreas tissue: Mean of log2(intensities): 21.09 a.u.

B5: Q3UN02 (protein, UniProt Q3UN02 1-376, looked up)
chain: MVSWKGIYFILFLFAGSFFGSIFMLGPILPLMFINLSWYRWISSRLVATWLTLPVALLETMFGVRVVITGDAFVPGERSVIIMNHRTRVDWMFLWNCLMRYSYLRVEKICLKSSLKSVPGFGWAMQVAAFIFIHRKWKDDKSHFEDMIDYFCAIHEPLQLLIFPEGTDLTENNKARSNDFAEKNGLQKYEYVLHPRTTGFTFVVDRLREGKNLDAVHDITVAYPYNIPQTEKHLLLGDFPKEIHFHVQRYPADSLPTSKEDLQLWCHRRWEEKEERLRSFYQGEKNFHFTGQSTVPPCKSELRVLVVKLLSIVYWALFCSAMCLLIYLYSPVRWYFIISIVFFVLQERIFGGLEIIELACYRFLHKHPHLNSKKNE
modifications: full-length
Pancreatic ECM: Mean of log2(intensities): 26.12 a.u. | Native pancreas tissue: Mean of log2(intensities): 21.97 a.u.

B6: Q9Z0R9 (protein, UniProt Q9Z0R9 1-444, looked up)
chain: MGKGGNQGEGSTERQAPMPTFRWEEIQKHNLRTDRWLVIDRKVYNVTKWSQRHPGGHRVIGHYSGEDATDAFRAFHLDLDFVGKFLKPLLIGELAPEEPSLDRGKSSQITEDFRALKKTAEDMNLFKTNHLFFFLLLSHIIVMESLAWFILSYFGTGWIPTLVTAFVLATSQAQAGWLQHDYGHLSVYKKSIWNHVVHKFVIGHLKGASANWWNHRHFQHHAKPNIFHKDPDIKSLHVFVLGEWQPLEYGKKKLKYLPYNHQHEYFFLIGPPLLIPMYFQYQIIMTMISRRDWVDLAWAISYYMRFFYTYIPFYGILGALVFLNFIRFLESHWFVWVTQMNHLVMEIDLDHYRDWFSSQLAATCNVEQSFFNDWFSGHLNFQIEHHLFPTMPRHNLHKIAPLVKSLCAKHGIEYQEKPLLRALIDIVSSLKKSGELWLDAYLHK
modifications: full-length
Pancreatic ECM: Mean of log2(intensities): 25.70 a.u. | Native pancreas tissue: Mean of log2(intensities): 21.09 a.u.

B7: P20918 (protein, UniProt P20918 1-812, looked up)
chain: MDHKEVILLFLLLLKPGQGDSLDGYISTQGASLFSLTKKQLAAGGVSDCLAKCEGETDFVCRSFQYHSKEQQCVIMAENSKTSSIIRMRDVILFEKRVYLSECKTGIGNGYRGTMSRTKSGVACQKWGATFPHVPNYSPSTHPNEGLEENYCRNPDNDEQGPWCYTTDPDKRYDYCNIPECEEECMYCSGEKYEGKISKTMSGLDCQAWDSQSPHAHGYIPAKFPSKNLKMNYCRNPDGEPRPWCFTTDPTKRWEYCDIPRCTTPPPPPSPTYQCLKGRGENYRGTVSVTVSGKTCQRWSEQTPHRHNRTPENFPCKNLEENYCRNPDGETAPWCYTTDSQLRWEYCEIPSCESSASPDQSDSSVPPEEQTPVVQECYQSDGQSYRGTSSTTITGKKCQSWAAMFPHRHSKTPENFPDAGLEMNYCRNPDGDKGPWCYTTDPSVRWEYCNLKRCSETGGSVVELPTVSQEPSGPSDSETDCMYGNGKDYRGKTAVTAAGTPCQGWAAQEPHRHSIFTPQTNPRAGLEKNYCRNPDGDVNGPWCYTTNPRKLYDYCDIPLCASASSFECGKPQVEPKKCPGRVVGGCVANPHSWPWQISLRTRFTGQHFCGGTLIAPEWVLTAAHCLEKSSRPEFYKVILGAHEEYIRGLDVQEISVAKLILEPNNRDIALLKLSRPATITDKVIPACLPSPNYMVADRTICYITGWGETQGTFGAGRLKEAQLPVIENKVCNRVEYLNNRVKSTELCAGQLAGGVDSCQGDSGGPLVCFEKDKYILQGVTSWGLGCARPNKPGVYVRVSRFVDWIEREMRNN
modifications: full-length
Pancreatic ECM: Mean of log2(intensities): 26.25 a.u. | Native pancreas tissue: Mean of log2(intensities): 21.76 a.u.

B8: Q9DBS1 (protein, UniProt Q9DBS1 1-400, looked up)
chain: MAANYSSTSSRKEHVKVTSEPQPGFLERLSETSGGMFVGLMTFLLSFYLIFTNEGRALKTATSLAEGLSLVVSPDSIHSVAPENEGRLVHIIGALRTSKLLSDPNYGVHLPAVKLRRHVEMYQWVETEESSEYTEDGQVKKETKYSYNTEWRSEIVNSRNFDREIGHKNPSAMAVESFTATAPFVQIGRFFLSAGLIDKIDNFKALSLAKLEDPHVDIIRRGDFFYHSENPKYPEVGDVRVSFSYAGLSSDDPDLGPAHVVTVIARQRGDQLIPYSTKSGDTLLLLHHGDFSAEEVFRREQKSNSMKTWGLRAAGWMAMFMGLNLMTRILYTLVDWFPVFRDLVNIGLKAFAFCVATSLTLLTVAAGWLFYRPLWAALIGCLALVPIIIARTRVPAKKLE
modifications: full-length
Pancreatic ECM: Mean of log2(intensities): 27.14 a.u. | Native pancreas tissue: Mean of log2(intensities): 22.45 a.u.
